According to patent publication US20260167731A1:
Results are given in words; binding and its absence hold for the method and conditions named. Some entries that bind do so weakly or less than the wild type.

By UniProt entry, the sequences of proteins in these tests, tags left out. Where a name states a change or a piece, a line headed by the entry shows the natural chain unless it says otherwise.
UniProt P51685: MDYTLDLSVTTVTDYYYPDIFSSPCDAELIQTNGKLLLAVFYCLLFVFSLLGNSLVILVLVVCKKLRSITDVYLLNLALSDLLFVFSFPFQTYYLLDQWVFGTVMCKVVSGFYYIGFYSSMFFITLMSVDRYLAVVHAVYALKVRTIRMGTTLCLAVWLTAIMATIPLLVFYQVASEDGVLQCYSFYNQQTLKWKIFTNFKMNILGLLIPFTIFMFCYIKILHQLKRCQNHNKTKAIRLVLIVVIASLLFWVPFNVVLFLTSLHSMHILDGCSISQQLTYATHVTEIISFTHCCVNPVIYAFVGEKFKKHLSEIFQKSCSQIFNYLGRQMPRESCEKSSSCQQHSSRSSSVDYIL

Experiments:
human CCR8 (human) = human CCR8 (human) (UniProt P51685); test: flow cytometry, hCCR8 transfected CHOK1 cells
[1] = biological target: pm1, modified CCR8 related peptide (human); test: ELISA on coated CCR8 peptide (500 ng/mL), OD [cont.]
[2] = biological target: pm2, modified CCR8 related peptide (human); test: as above
[3] = biological target: pm3, modified CCR8 related peptide (human); test: as above
[4] = biological target: pm4, modified CCR8 related peptide (human); test: as above
[5] = biological target: pm5, modified CCR8 related peptide (human); test: as above
[6] = biological target: pm6, modified CCR8 related peptide (human); test: as above
[7] = biological target: pm8, modified CCR8 related peptide (human); test: as above
[8] = biological target: pwt1, unmodified CCR8 related peptide (human); test: as above

Measured: binding

B1: anti-CCR8 mAb 2-9 (antibody, V domains shown)
VH: QVQLQQPGSELVRPGASVKLSCKASGYTFTSYWMHWVKQRPGQGLEWIGNIWPGSASTNYDEKFKNKATLTVDTSSSTAYMQLSSLTSEDSAVYYCIRGGKGAMDYWSQGTSVTVSS
VL: DVVMTQIPLSLPVSLGDQASISCRSSQSLENSYGNTYLNWYLQKPGQSPQLLIYRVSNRFSGVLDRFSGSGSGTDFTLKISRVEAEDLGVYFCLQVTHVPPTFGAGTKLELK
binds: all assays above
